Assay results as given in patent US20250277051A1 (HANGZHOU UNOGEN BIOTECH, published 2025).
These are yes or no findings as the source states them, for the method shown. Some results given as binding are weak or reduced against the parent protein; the word gives no strength.

Sequences of proteins named here, by UniProt entry; tags and fusion partners are left off. Residues count along the entry.
UniProt P07766, residues 23-207: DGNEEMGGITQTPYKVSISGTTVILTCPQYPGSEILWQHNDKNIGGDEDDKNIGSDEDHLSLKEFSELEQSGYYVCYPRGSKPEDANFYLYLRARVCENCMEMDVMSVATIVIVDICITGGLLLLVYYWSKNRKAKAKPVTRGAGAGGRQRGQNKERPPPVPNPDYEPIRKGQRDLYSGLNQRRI

B1: SEQ ID NO:4 x 40G5 (bispecific antibody, V domains shown)
VHH: EVQLQESGGGLVQAGHSLRLSCVGSGSRFDNYAMGWFRQAPGKEREFVAAISWSSGTTRYLDTVKGRFTISRDNAKSTVYLQMNSLKPEDTAVYYCAARYQPRYYDSGDMDGYEYDNWGQGTQVTVSS
VH: EVQLVQSGAEVKKPGASVKVSCKASGYTFTNYYIHWVRQAPGQGLEWIGWIYPGDGNTKYNEKFKGRATLTADTSTSTAYLELSSLRSEDTAVYYCARDSYSNYYFDYWGQGTLVTVSS
VL: DIVMTQSPDSLAVSLGERATINCKSSQSLLNSRTRKNYLAWYQQKPGQPPKLLIYWASTRESGVPDRFSGSGSGTDFTLTISSLQAEDVAVYYCTQSFILRTFGQGTKVEIK
B2: SEQ ID NO: 4×SP34 v8 (bispecific antibody, V domains shown)
VHH: EVQLQESGGGLVQAGHSLRLSCVGSGSRFDNYAMGWFRQAPGKEREFVAAISWSSGTTRYLDTVKGRFTISRDNAKSTVYLQMNSLKPEDTAVYYCAARYQPRYYDSGDMDGYEYDNWGQGTQVTVSS
VH: EVQLVESGGGLVQPGGSLKLSCAASGFTFNTYAMNWVRQAPGKGLEWVARIRSKYNNYATYYADSVKDRFTISRDDSKNTAYLQMNNLKTEDTAVYYCVRHGNFGNSYVAWFAYWGQGTLVTVSS
VL: QTVVTQEPSLTVSPGGTVTLTCRSSTGAVTTSNYANWVQQKPGQAPRGLIGGTNKRAPGTPARFSGSLLGGKAALTLSGVQPEDEAEYYCALWYSNLWVFGGGTKLTVL
notes: CD38 VHO arm paired with a CD3 arm

Biological target: human CD3 protein as natively presented on the surface of T cells (human) (UniProt P07766)
Test: flow cytometry on CD3+ T cells from human PBMCs, gMFI (AF647)

Row | binding | Binder
1 | binds | B1
2 | binds | B2
